Experimental data as given in paper PMC6035221, “Interaction between parasite-encoded JAB1/CSN5 and macrophage migration inhibitory factor proteins attenuates its proinflammatory function” (Scientific Reports, 2018).
Results are given in words; binding and its absence hold for the method and conditions named. Binding seen in cells or lysates may run through a third protein. These calls come from enrichment with a bait or labelling near it, and not all partners need be listed. Where a sequence is shown, tags or fusion partners need not be part of it.

Target: T1, Entamoeba histolytica MIF (EhMIF), endogenous (Entamoeba histolytica (endogenous in trophozoites)) (UniProt C4LV00)
T1 sequence: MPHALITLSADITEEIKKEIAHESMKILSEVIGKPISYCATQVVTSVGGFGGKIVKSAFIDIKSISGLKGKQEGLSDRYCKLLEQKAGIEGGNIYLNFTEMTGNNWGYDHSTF
Assay: affinity purification with mass spectrometry; anti-EhMIF rabbit serum or rabbit IgG cross-linked to Protein A Dynabeads, 500 µl amebic lysate (20 mM Tris HCl pH 8, 137 mM NaCl, 1% TritonX-100, 2 mM EDTA), overnight at 4 °C; eluate analysed by mass spectrometry

B1: Entamoeba histolytica-encoded JAB1 (EhJAB1), endogenous (protein, UniProt C4LTS3 1-318)
chain: MGEEAAYKEWEKVNGVKYIEEDKLLEWNDSEREQIFKDRPWKKDPYYFKKCYVSSVALLKMVMHAKQGEPLEIMGILIGQTKGDSFVITDVVSLPVEGTETRVNASADCDAYMLQYGEYKNSTGFKEPFCGWYHSHPSYKCWLSGIDVATEKLHQSINDPWIAIVVDPVTTSTNGKIEIGAFRTFPEGFKPQQKAEMKKVLPSEKIADFGSYYDSYYSIKVELFKTKLDDQVLRLLWHEYWINTLAATAIISSRDVMDEKIIDLYDKFTAELKNNKSNVVDACGAILDDAKEIQMIYERGIKSLDLKNILFNQKVTGK
- binding: binds
